The text below walks through data of paper PMC7862700.

By UniProt entry, the sequences of proteins in these tests, tags left out. Where a name states a change or a piece, a line headed by the entry shows the natural chain unless it says otherwise.
UniProt O43186: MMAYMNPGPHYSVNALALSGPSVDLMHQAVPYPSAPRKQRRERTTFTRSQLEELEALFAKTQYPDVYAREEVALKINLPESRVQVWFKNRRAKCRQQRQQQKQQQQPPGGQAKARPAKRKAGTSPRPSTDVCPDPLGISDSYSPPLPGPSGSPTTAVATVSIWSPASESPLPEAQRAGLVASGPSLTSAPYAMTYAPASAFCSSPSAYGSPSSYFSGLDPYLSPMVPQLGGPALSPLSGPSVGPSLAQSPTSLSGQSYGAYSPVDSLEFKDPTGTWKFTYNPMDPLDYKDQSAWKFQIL

This is a selection; strong and weak results do not stand in their true shares. At the low end of the ranking the order means little.

The target in this test is CRX (UniProt O43186). The test can be described thus: DAPPL (digital affinity profiling via proximity ligation, sequencing). The note with it: 10 mM Tris-HCl pH 7.5, 50 mM NaCl, 1 mM DTT, 4% glycerol, room temperature, 30 min; GST-TFs on glutathione beads, 16-mer random dsDNA library, 0.1% …; high values mean tight binding; double strand, one strand shown; scale: fold enrichment (6-mer frequency, TF over GST control).
GAACAC came in with a binding signal of 0.863. With TTGACA the figure was 1.22. Sequence ACATTA came in with a binding signal of 1.38. The figure for TTTGAA is 1.28; for ATGTAC it is 0.994; for AATGGG it is 0.952. The figure for GGAACA is 0.774; for GGCTCT it is 1.27; for TTCAGT it is 0.957. Sequence AAATGG gave a binding signal of 1.22.

AAAGGT yielded a binding signal of 0.971. The figure for GATGCC is 0.915; for GAAATG it is 0.858. The figure for TAAGAT is 2.49; for TTCCGT it is 0.962; for ACTTCA it is 1.17. The figure for TCACTT is 1.23.

In the case of CTGTCA, the binding signal was 0.85. With ATACAA the figure was 1.07. For GTACTC, the binding signal is 0.876.

Regarding TTATGT, the binding signal is 2.24. The figure for TGGTTC is 0.963; for ATATAC it is 1.08.

ACTACT yielded a binding signal of 1.11.

Sequence TGCTCA showed a binding signal of 1.28. The figure for GAATCT is 1.21; for ATCTCG it is 1.92.

Take GCGACT: the binding signal was 1.14.

Sequence TGGTAG showed a binding signal of 0.939. TTGCGT had a binding signal of 0.984.

In turn, CCATAA gave a binding signal of 1.64. With ATGACG the figure was 1.11; with ATGGAT, 1.6. With TGACAC the figure was 0.831; with TCTTAG, 1.86. The figure for TGGCAG is 0.914. The sequence CTTCAG gave a binding signal of 1.16. With AGAAAT the figure was 1.35; with AACGTA, 0.985.
